Values joined by “and” are separate entries in the source; they are usually repeats but may differ in a detail not shown here. Equal values may be shown once. Where a name gives a salt, the structure may show the parent alone. This is one part of the list. Single values are uncertain here, since repeats match poorly.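 HEK293T cells were given each compound shortly before transfection with a reporter in which red mCherry is followed by the SARS-CoV-2 frameshift element and then GFP in the −1 frame, so GFP appears only after frameshifting.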

This assay relates to HEK293T. Nature of the assay: percent viability (nuclei count) relative to control; higher = more viable cells. Particulars: 10 µM; 24 h.
For `CN1CCCCC1CCN1c2ccccc2Sc2ccc([S+](C)[O-])cc21` (centres undefined), the percent viability was 379%.
Under `CC[C@H](C)[C@H](N)C(=O)O` [isoleucine] stands 306%; under `CN(C)C(=N)NC(=N)N` [metformin], 208%; under `CC(C)c1nc(CN(C)C(=O)N[C@H](C(=O)N[C@@H](Cc2ccccc2)C[C@H](O)[C@H](Cc2ccccc2)NC(=O)OCc2cncs2)C(C)C)cs1` [ritonavir], 387%.
`CN1CCc2c(c3ccccc3n2Cc2ccccc2)C1`: the percent viability worked out at 415%.
Under `CC(=O)OCC(=O)[C@@]12OC(C)(C)O[C@@H]1C[C@H]1[C@@H]3C[C@H](F)C4=CC(=O)C=C[C@]4(C)[C@@]3(F)[C@@H](O)C[C@@]12C` [fluocinonide] stands 171% and 255%.
For `Cc1cccc(C)c1NC(=O)CN1CCN(CCCC(c2ccc(F)cc2)c2ccc(F)cc2)CC1` [lidoflazine], the percent viability stood at 172%.
Under `CCOCCn1c(N2CCCN(C)CC2)nc2ccccc21` [emedastine] stands 303%.
In the case of `CC(C)Cc1ccc(C(C)C(=O)NCCO)cc1` (centres undefined) [mabuprofen], the percent viability turned out to be 297%.
The figure for `O=C(c1cc(Cc2n[nH]c(=O)c3ccccc23)ccc1F)N1CCN(C(=O)C2CC2)CC1` [Olaparib] is 243%.
The figure for `Cl/C(=C\n1cncn1)c1ccc(Cl)cc1Cl` [loreclezole] is 172%; for `CC1(C)S[C@@H]2[C@H](NC(=O)C3(N)CCCCC3)C(=O)N2[C@H]1C(=O)O` [ciclacillin] it is 106%.
Under `NCCCC(N)(C(=O)O)C(F)F` (centres undefined) [eflornithine] stands 295% and 241%; under `CCC(c1ccccc1)c1noc(CCN(CC)CC)n1` (centres undefined), 156%.
`CCc1cccc(NC2CC3CCC2C3)c1` (centres undefined): the percent viability is 10.1%.
The figure for `CCN1CC(CCN2CCOCC2)C(c2ccccc2)(c2ccccc2)C1=O` (centres undefined) is 138%; for `C[C@H]1C[C@H]2[C@@H]3C[C@H](F)C4=CC(=O)C=C[C@]4(C)[C@@]3(F)[C@@H](O)C[C@]2(C)[C@@]1(O)C(=O)CO` [diflorasone] it is 169%.
The figure for `C(=C(C1CCCCC1)C1CCCCC1)C1CCCCN1` (centres undefined) [hexadiline] is 167%.
Under `COc1ccc(C[C@H](N)C(=O)N[C@H]2[C@@H](O)[C@H](n3cnc4c(N(C)C)ncnc43)O[C@@H]2CO)cc1` stands 52.3%.
As for `Cc1cccc(C)c1OCC(C)N` (centres undefined), the percent viability came out at 292%.
Consider `CN/C(=C\[N+](=O)[O-])NCCSCc1ccc(CN(C)C)o1` [Ranitidine·HCl], for which the percent viability worked out at 213%.
Turning to `O=C1NC(=O)C(C(=O)Nc2ccc(Cl)cc2)c2ccccc21` (centres undefined) [tesicam], the percent viability turned out to be 133%.
Under `Cc1c(C(=O)NN2CCCCC2)nn(-c2ccc(Cl)cc2Cl)c1-c1ccc(Cl)cc1` [rimonabant] stands 184%.
The figure for `CC1=C(/C=C/C(C)=C/C=C/C(C)=C/C(=O)Nc2ccc(O)cc2)C(C)(C)CCC1` [fenretinide] is 5.07%; for `Cc1cc2nc3ccc(=[N+](C)C)cc-3sc2cc1N` [tolonium chloride] it is 191%; for `CC(C)=CCOc1ccc(/C=C/C(=O)c2ccc(OCC=C(C)C)cc2OCC(=O)O)cc1` [sofalcone] it is 266%.
For `CCN(CC)S(=O)(=O)c1ccc(C(=O)O)cc1` [etebenecid], the percent viability came to 253%.
Under `CN(C(=O)CN(CCO)CC(=O)N(C)C(C)(C)Cc1ccccc1)C(C)(C)Cc1ccccc1` [oxetacaine] stands 310%.
On to `CC1=C(/C=C/C(C)=C/C=C/C(C)=C/CO)C(C)(C)CCC1`, for which the percent viability was determined as 96.5%.
For `CN(C)CCC=C1c2ccccc2COc2ccccc21`, the percent viability amounted to 158%.
Turning to `NCC(O)CC(=O)O` (centres undefined), the percent viability came to 258%.
With `CN(C/C=C/c1ccccc1)Cc1cccc2ccccc12` [naftifine], the percent viability was found to be 279%.
The figure for `Cc1cnc(NC(=O)C2=C(O)c3ccccc3S(=O)(=O)N2C)s1` [meloxicam] is 189%; for `COc1cc2ncnc(N3CCN(C(=O)OCC(C)(C)O)CC3)c2cc1OC` [hoquizil] it is 133%; for `CC1=C(/C=C/C(C)=C/C=C/C(C)=C\C(=O)O)C(C)(C)CCC1` [isotretionin] it is 232%.
Under `C[C@H](N)C(=O)N[C@@H](C)C(=O)N[C@H]1[C@@H]2CN(c3nc4c(cc3F)c(=O)c(C(=O)O)cn4-c3ccc(F)cc3F)C[C@@H]21` [alatrofloxacin] stands 275%.
With `C[C@@H](NCCCc1cccc(C(F)(F)F)c1)c1cccc2ccccc12` [cinacalcet], the percent viability was 324%.
Consider `CC1=C(/C=C/C(C)=C/C=C/C(C)=C/CO)C(C)(C)CCC1` [Vitamin A (Retinol)], for which the percent viability turned out to be 283%.
For the compound `C[C@]12CC[C@@H](O)C[C@@H]1CC[C@H]1[C@@H]3CC[C@H](C(=O)CO)[C@@]3(C)CC(=O)[C@@H]12` [alfadolone], the percent viability was 302%.

For the origin of these results see the supplement of paper PMC8256030.
